The other results are listed elsewhere or left out.
These targets were tested with COc1ccc(Cn2ccc3ccc(C(=O)NO)cc32)cc1 (assay: dose-dependent thermal stabilisation call (2D-TPP, DLPTP, 10% FDR) (binary (1 = stabilised)); higher = stabilised by the compound). Conditions: system: HL-60 intact cells; concentration range 0.04-10 µM.

Protein sequences, listed by entry. Tags and fused reporters are not part of them. Lines headed by an entry give the natural chain unless they say otherwise; changes in a name come on top.
UniProt Q9UG63: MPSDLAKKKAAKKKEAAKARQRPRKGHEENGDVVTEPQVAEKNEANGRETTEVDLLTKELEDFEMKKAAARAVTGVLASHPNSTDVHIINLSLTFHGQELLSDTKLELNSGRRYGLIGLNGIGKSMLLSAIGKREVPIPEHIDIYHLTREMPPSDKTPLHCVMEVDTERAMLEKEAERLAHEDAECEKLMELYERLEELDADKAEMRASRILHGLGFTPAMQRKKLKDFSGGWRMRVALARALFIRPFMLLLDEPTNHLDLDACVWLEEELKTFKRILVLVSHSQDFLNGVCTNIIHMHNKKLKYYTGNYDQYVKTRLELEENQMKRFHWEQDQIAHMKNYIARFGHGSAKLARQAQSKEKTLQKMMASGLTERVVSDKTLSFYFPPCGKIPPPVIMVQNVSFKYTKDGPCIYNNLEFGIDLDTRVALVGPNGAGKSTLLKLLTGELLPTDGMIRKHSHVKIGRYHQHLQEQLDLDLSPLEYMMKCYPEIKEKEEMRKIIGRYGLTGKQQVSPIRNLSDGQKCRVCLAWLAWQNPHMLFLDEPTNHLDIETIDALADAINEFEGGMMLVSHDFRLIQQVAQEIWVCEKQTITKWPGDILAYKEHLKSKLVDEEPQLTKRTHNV
UniProt Q8NFV4: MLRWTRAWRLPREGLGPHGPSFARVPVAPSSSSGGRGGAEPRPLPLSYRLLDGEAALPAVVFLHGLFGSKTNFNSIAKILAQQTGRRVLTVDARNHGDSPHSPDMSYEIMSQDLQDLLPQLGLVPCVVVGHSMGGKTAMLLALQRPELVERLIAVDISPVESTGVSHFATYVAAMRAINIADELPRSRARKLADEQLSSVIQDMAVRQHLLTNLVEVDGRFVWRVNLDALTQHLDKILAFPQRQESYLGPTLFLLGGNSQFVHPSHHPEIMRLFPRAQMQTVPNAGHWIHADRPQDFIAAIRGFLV
UniProt P33897: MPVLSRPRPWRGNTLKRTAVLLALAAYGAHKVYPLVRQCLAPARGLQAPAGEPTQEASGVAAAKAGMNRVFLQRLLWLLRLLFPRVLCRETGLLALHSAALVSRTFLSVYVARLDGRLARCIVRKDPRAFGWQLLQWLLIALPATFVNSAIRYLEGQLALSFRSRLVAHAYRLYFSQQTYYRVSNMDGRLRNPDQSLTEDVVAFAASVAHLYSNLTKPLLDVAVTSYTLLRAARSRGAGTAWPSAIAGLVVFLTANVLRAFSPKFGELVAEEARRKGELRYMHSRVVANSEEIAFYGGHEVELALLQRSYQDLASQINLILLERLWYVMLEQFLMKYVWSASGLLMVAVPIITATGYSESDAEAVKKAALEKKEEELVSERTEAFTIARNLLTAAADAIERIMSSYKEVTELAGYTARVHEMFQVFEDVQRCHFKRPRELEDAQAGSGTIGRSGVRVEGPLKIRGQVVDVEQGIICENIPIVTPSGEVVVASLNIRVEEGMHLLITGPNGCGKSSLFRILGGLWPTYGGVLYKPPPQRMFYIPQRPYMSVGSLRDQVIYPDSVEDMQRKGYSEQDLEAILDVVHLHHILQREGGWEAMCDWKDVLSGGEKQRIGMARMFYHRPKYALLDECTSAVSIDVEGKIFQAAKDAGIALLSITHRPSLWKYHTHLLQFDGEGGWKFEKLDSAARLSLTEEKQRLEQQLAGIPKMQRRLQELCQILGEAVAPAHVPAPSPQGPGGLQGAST
UniProt Q4L235: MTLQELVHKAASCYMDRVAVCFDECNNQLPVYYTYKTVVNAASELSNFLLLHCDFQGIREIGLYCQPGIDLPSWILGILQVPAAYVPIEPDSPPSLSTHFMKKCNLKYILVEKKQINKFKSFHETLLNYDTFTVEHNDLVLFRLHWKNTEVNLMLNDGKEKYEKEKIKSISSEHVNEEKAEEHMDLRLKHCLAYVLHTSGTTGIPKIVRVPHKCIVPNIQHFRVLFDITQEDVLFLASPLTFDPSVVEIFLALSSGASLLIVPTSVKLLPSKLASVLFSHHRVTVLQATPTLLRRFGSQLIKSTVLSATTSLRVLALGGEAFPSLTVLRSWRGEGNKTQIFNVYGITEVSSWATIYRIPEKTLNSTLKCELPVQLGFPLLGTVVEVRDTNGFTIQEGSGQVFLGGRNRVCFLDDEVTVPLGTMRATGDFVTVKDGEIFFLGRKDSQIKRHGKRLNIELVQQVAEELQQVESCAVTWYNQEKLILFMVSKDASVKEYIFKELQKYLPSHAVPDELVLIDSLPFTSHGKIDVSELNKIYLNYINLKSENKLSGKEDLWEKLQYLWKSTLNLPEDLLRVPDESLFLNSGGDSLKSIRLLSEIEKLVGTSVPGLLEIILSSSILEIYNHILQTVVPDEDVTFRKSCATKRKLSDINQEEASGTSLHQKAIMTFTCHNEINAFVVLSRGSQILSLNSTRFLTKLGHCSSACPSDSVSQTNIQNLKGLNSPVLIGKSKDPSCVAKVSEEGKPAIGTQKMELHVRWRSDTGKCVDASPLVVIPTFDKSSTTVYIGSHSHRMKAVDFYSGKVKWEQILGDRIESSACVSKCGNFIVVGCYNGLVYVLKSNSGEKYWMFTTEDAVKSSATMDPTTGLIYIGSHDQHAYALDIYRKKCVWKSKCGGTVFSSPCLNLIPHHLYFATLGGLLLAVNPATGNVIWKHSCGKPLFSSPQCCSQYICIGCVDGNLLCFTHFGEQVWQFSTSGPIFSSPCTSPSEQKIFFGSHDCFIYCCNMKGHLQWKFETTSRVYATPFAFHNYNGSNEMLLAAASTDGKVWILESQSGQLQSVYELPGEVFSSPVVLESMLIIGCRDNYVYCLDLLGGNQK
UniProt O15440: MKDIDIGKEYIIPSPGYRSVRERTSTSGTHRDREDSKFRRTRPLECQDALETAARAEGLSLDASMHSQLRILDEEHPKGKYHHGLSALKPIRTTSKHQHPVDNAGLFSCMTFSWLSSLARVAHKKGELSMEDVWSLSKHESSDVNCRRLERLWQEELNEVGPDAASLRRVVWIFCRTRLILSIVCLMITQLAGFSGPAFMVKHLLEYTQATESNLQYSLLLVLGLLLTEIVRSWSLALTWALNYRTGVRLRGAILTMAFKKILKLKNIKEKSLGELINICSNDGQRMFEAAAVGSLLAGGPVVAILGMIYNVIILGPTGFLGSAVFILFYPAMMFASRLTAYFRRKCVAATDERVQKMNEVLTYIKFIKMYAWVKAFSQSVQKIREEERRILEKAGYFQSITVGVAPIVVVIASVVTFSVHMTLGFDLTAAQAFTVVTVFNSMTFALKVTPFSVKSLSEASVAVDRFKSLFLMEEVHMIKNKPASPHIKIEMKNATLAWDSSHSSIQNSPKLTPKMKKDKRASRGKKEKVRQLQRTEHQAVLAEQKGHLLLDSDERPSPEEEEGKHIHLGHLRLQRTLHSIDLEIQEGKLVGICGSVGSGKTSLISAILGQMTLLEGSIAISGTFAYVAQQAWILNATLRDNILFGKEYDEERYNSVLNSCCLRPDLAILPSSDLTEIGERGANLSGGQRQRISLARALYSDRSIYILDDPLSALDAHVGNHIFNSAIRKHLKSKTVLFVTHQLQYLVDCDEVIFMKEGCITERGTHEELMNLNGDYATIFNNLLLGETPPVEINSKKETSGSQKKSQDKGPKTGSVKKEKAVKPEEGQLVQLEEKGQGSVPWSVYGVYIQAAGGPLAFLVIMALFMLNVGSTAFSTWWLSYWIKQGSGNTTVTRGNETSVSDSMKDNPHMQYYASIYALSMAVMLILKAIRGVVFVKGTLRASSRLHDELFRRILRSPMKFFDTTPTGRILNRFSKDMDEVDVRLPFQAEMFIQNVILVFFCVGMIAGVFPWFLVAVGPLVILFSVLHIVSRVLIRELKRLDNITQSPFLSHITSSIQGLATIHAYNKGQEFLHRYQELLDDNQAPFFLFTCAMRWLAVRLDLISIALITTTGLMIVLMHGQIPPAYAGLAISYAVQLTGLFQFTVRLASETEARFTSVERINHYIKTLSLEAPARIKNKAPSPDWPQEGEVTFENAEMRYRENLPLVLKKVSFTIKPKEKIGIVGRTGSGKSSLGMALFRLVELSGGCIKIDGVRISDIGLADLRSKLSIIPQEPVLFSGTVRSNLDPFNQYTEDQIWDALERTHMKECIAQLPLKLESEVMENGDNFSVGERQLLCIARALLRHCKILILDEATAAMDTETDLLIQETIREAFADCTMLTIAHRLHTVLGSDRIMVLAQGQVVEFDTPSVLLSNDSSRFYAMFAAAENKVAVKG
UniProt P49588, whole entry: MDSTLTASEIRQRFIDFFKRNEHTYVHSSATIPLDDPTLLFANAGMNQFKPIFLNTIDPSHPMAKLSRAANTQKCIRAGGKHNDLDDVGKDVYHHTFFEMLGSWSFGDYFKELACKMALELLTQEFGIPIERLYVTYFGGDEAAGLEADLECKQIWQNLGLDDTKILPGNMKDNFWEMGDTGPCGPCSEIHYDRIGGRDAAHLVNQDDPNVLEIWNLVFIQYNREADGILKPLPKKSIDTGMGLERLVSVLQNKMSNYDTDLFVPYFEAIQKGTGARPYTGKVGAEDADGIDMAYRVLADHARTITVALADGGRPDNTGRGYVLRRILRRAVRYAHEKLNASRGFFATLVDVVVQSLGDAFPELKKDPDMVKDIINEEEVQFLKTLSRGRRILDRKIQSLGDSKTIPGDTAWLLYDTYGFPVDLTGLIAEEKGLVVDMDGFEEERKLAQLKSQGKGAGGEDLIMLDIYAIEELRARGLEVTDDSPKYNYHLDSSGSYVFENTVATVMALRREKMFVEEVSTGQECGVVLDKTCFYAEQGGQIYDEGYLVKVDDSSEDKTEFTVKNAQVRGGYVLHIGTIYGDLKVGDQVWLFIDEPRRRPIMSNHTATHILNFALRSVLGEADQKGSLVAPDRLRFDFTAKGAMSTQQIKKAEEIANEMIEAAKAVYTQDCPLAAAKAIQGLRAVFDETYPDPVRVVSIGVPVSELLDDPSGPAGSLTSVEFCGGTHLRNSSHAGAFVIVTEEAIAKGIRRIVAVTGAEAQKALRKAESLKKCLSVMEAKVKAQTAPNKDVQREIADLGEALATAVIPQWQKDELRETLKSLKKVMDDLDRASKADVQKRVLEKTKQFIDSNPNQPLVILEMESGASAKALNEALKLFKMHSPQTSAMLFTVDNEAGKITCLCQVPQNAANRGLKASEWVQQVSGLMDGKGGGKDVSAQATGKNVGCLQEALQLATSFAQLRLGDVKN
UniProt Q15027: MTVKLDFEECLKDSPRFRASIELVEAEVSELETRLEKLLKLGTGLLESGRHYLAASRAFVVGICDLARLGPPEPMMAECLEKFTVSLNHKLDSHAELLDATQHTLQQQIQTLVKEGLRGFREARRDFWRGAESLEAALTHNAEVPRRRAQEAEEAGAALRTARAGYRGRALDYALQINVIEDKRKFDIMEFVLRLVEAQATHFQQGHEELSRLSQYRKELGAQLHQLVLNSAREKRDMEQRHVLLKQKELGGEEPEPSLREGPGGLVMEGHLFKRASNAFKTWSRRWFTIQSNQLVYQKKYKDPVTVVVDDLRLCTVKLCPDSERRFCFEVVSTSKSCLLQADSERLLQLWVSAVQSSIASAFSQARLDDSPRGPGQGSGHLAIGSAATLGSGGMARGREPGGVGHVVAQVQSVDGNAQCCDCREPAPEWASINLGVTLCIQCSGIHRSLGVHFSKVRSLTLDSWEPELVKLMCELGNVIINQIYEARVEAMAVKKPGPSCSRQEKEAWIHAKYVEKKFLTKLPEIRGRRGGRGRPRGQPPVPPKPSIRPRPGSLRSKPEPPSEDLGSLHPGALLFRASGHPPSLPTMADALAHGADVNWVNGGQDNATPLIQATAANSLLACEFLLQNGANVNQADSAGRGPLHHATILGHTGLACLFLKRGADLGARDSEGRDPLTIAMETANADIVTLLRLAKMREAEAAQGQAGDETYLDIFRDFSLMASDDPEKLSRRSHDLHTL
UniProt Q6PIU2: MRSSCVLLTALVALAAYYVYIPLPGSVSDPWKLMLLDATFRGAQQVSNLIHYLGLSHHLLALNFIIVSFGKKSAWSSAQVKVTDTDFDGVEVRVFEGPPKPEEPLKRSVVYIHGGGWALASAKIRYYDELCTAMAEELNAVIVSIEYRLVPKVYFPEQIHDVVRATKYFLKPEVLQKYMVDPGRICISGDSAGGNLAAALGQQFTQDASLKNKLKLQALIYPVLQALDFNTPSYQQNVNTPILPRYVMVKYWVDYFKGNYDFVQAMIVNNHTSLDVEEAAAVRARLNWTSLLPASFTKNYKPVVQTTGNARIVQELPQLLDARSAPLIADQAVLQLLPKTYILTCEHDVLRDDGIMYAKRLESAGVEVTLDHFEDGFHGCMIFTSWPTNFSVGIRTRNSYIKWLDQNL
UniProt Q9BVM4: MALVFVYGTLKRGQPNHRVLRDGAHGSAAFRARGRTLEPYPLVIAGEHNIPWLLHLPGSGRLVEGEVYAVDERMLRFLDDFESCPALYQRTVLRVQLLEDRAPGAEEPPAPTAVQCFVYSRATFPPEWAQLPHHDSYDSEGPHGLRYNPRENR

Q: Which “dose-dependent thermal stabilisation call” value does the source give for ABCE1 (UniProt P61221) here?
A: inactive: 0

Q: ABCF2 (UniProt Q9UG63) was tested. Which “dose-dependent thermal stabilisation call” value did it give?
A: inactive: 0

Q: For ACADM (UniProt P11310), which “dose-dependent thermal stabilisation call” value is on record?
A: inactive: 0

Q: ABCB7 (UniProt O75027) was tested. Which “dose-dependent thermal stabilisation call” value did it give?
A: inactive: 0

Q: Which “dose-dependent thermal stabilisation call” value does the source give for ACAD11 (UniProt Q709F0) here?
A: inactive: 0

Q: With ABHD11 (UniProt Q8NFV4) as the target, how does the “dose-dependent thermal stabilisation call” value read?
A: inactive: 0

Q: Which “dose-dependent thermal stabilisation call” value does the source give for ABCD1 (UniProt P33897) here?
A: inactive: 0

Q: With AASDH (UniProt Q4L235) as the target, how does the “dose-dependent thermal stabilisation call” value read?
A: inactive: 0

Q: ABCB8 (UniProt Q9NUT2) was tested. Which “dose-dependent thermal stabilisation call” value did it give?
A: inactive: 0

Q: Which “dose-dependent thermal stabilisation call” value does the source give for ABCA2 (UniProt Q9BZC7) here?
A: inactive: 0

Q: How did the “dose-dependent thermal stabilisation call” value turn out when ABCF3 (UniProt Q9NUQ8) was run?
A: inactive: 0

Q: ABLIM1 (UniProt O14639) was tested. Which “dose-dependent thermal stabilisation call” value did it give?
A: inactive: 0

Q: How did the “dose-dependent thermal stabilisation call” value turn out when ABCC5 (UniProt O15440) was run?
A: inactive: 0

Q: AARS (UniProt P49588) was tested. Which “dose-dependent thermal stabilisation call” value did it give?
A: inactive: 0

Q: ACADVL (UniProt P49748) was tested. Which “dose-dependent thermal stabilisation call” value did it give?
A: inactive: 0

Q: With ABHD14B (UniProt Q96IU4) as the target, how does the “dose-dependent thermal stabilisation call” value read?
A: inactive: 0

Q: ABL2 (UniProt P42684) was tested. Which “dose-dependent thermal stabilisation call” value did it give?
A: inactive: 0

Q: Which “dose-dependent thermal stabilisation call” value does the source give for ABCC4 (UniProt O15439) here?
A: inactive: 0

Q: With ACAP1 (UniProt Q15027) as the target, how does the “dose-dependent thermal stabilisation call” value read?
A: inactive: 0

Q: ABR (UniProt Q12979) was tested. Which “dose-dependent thermal stabilisation call” value did it give?
A: inactive: 0

Q: With ABL1 (UniProt P00519) as the target, how does the “dose-dependent thermal stabilisation call” value read?
A: inactive: 0

Q: AADACL1 (UniProt Q6PIU2) was tested. Which “dose-dependent thermal stabilisation call” value did it give?
A: inactive: 0

Q: A2M (UniProt P01023) was tested. Which “dose-dependent thermal stabilisation call” value did it give?
A: inactive: 0

Q: Which “dose-dependent thermal stabilisation call” value does the source give for ACACA (UniProt Q13085) here?
A: inactive: 0

Q: Which “dose-dependent thermal stabilisation call” value does the source give for A2LD1 (UniProt Q9BVM4) here?
A: inactive: 0

Q: For AAAS (UniProt Q9NRG9), which “dose-dependent thermal stabilisation call” value is on record?
A: inactive: 0

Q: For AARSD1 (UniProt Q9BTE6), which “dose-dependent thermal stabilisation call” value is on record?
A: inactive: 0
